Values quoted from earlier work as cited in paper PMC12990809.
Whether high values mean tight binding is not given here for every scale. For some of these results: Protein sequences can lack the tags named with them.

Chains of the proteins cited; added tags and fusions are not shown. A line that says so, or that is headed by a name, gives the form on record, which may keep a tag or linker.
UniProt Q9NFU0, other isoform, or with tags, fused parts or gaps: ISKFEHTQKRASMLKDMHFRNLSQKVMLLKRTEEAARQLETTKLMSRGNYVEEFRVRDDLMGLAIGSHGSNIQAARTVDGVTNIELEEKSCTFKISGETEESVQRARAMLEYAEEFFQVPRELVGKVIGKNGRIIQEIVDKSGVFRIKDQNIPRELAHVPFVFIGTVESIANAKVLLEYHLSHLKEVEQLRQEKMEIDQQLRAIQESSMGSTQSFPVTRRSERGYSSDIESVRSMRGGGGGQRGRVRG

Tests used:
Experiment in all cases: pull-down
[1] = target: T1, ANIA_04546 (Aspergillus nidulans) (UniProt Q5B4I4); settings: 20 nM protein, 1.5 uM RNA pool; 20 mM HEPES pH 7.8, 70 mM KCl, 10 mM NaCl, 10% glycerol, 2 mM DTT, 0.1 ug/uL BSA; 30 min, 4 C; purified recombinant protein; residues 178-542; protein details: N-terminal GST (kept); only the motif is given; cited from earlier work
T1 sequence: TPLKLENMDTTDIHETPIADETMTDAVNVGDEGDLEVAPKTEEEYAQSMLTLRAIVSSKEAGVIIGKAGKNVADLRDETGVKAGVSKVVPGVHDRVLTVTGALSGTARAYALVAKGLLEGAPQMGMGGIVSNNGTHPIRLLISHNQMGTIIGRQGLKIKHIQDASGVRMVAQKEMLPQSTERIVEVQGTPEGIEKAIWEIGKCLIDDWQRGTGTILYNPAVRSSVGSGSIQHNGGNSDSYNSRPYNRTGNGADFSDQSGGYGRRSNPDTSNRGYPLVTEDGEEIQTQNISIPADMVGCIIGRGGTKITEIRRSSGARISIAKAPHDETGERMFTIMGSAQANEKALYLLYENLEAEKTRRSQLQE

[2] = target: T2, snRNP-U1-70K (Drosophila melanogaster) (UniProt P17133); settings: 20 nM protein, 1.5 uM RNA pool; 20 mM HEPES pH 7.8, 70 mM KCl, 10 mM NaCl, 10% glycerol, 2 mM DTT, 0.1 ug/uL BSA; 30 min, 4 C; purified recombinant protein; residues 54-224; protein details: N-terminal GST (kept); only the motif is given; cited from earlier work
T2 sequence: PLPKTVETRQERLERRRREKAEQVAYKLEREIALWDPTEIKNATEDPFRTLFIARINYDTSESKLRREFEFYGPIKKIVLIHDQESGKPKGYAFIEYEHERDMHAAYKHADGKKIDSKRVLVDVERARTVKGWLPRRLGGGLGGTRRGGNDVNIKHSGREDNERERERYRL

[3] = target: T3, Rox8 (Drosophila melanogaster) (UniProt B6IDM4); settings: 20 nM protein, 1.5 uM RNA pool; 20 mM HEPES pH 7.8, 70 mM KCl, 10 mM NaCl, 10% glycerol, 2 mM DTT, 0.1 ug/uL BSA; 30 min, 4 C; purified recombinant protein; residues 1-338; protein details: N-terminal GST (kept); only the motif is given; cited from earlier work
T3 sequence: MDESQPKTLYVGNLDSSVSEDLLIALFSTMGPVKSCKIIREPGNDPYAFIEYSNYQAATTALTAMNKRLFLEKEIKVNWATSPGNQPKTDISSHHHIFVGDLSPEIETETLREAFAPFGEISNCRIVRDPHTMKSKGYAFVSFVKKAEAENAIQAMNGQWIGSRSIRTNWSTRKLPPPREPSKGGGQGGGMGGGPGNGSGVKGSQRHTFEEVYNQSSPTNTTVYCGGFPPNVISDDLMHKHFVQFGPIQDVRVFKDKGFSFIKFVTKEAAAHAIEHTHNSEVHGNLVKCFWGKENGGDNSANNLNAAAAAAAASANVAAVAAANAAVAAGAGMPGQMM

RBM6 (Homo sapiens) = target: T4, RBM6 (Homo sapiens) (UniProt P78332); settings: 20 nM protein, 1.5 uM RNA pool; 20 mM HEPES pH 7.8, 70 mM KCl, 10 mM NaCl, 10% glycerol, 2 mM DTT, 0.1 ug/uL BSA; 30 min, 4 C; purified recombinant protein; residues 408-774; protein details: N-terminal GST (kept); only the motif is given; cited from earlier work
T4 sequence: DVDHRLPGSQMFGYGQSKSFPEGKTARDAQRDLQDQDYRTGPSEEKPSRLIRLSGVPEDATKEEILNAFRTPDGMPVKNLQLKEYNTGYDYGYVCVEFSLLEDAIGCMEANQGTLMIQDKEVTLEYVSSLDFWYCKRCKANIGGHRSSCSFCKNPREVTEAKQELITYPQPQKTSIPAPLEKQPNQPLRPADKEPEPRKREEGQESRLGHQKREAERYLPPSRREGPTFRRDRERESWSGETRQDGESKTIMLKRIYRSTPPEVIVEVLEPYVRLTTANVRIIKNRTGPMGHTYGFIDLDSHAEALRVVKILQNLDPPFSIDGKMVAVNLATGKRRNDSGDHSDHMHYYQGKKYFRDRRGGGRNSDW

[4] = target: T5, rbm42 (Xenopus tropicalis) (UniProt Q66KL9); settings: 20 nM protein, 1.5 uM RNA pool; 20 mM HEPES pH 7.8, 70 mM KCl, 10 mM NaCl, 10% glycerol, 2 mM DTT, 0.1 ug/uL BSA; 30 min, 4 C; purified recombinant protein; residues 245-392; protein details: N-terminal GST (kept); only the motif is given; cited from earlier work
T5 sequence: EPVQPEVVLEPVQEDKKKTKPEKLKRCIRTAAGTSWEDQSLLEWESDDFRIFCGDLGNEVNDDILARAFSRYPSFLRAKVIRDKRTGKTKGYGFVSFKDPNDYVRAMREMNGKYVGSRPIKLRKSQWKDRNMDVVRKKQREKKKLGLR

ENOX1 (Homo sapiens) = target: T6, ENOX1 (Homo sapiens) (UniProt Q8TC92); settings: 20 nM protein, 1.5 uM RNA pool; 20 mM HEPES pH 7.8, 70 mM KCl, 10 mM NaCl, 10% glycerol, 2 mM DTT, 0.1 ug/uL BSA; 30 min, 4 C; purified recombinant protein; residues 94-254; protein details: N-terminal GST (kept); only the motif is given; cited from earlier work
T6 sequence: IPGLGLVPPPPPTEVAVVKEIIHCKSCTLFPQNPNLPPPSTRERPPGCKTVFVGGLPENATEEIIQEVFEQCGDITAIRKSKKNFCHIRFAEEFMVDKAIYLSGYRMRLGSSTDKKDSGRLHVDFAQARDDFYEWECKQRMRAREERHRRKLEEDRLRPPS

[5] = target: T7, CG7903 (Drosophila melanogaster) (UniProt Q8SYB8); settings: 20 nM protein, 1.5 uM RNA pool; 20 mM HEPES pH 7.8, 70 mM KCl, 10 mM NaCl, 10% glycerol, 2 mM DTT, 0.1 ug/uL BSA; 30 min, 4 C; purified recombinant protein; residues 1-118; protein details: N-terminal GST (kept); only the motif is given; cited from earlier work
T7 sequence: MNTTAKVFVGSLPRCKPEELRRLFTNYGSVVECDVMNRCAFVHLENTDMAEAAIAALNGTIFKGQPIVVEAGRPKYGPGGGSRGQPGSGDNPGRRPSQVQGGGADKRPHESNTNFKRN

FUS (Homo sapiens) = target: T8, FUS (Homo sapiens) (UniProt P35637); settings: 20 nM protein, 1.5 uM RNA pool; 20 mM HEPES pH 7.8, 70 mM KCl, 10 mM NaCl, 10% glycerol, 2 mM DTT, 0.1 ug/uL BSA; 30 min, 4 C; purified recombinant protein; residues 237-415; protein details: N-terminal GST (kept); only the motif is given; cited from earlier work
T8 sequence: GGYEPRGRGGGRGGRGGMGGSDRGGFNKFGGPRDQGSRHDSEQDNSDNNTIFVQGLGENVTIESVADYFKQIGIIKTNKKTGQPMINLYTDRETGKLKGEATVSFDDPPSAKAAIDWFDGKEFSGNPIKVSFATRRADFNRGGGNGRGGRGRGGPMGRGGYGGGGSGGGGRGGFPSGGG

[6] = target: Fmr1 (Drosophila melanogaster) (UniProt Q9NFU0); settings: 20 nM protein, 1.5 uM RNA pool; 20 mM HEPES pH 7.8, 70 mM KCl, 10 mM NaCl, 10% glycerol, 2 mM DTT, 0.1 ug/uL BSA; 30 min, 4 C; purified recombinant protein; residues 173-420; protein details: N-terminal GST (kept); only the motif is given; cited from earlier work
FMR1 (Homo sapiens) = FMR1 (Homo sapiens) (UniProt Q06787); settings: 20 nM protein, 1.5 uM RNA pool; 20 mM HEPES pH 7.8, 70 mM KCl, 10 mM NaCl, 10% glycerol, 2 mM DTT, 0.1 ug/uL BSA; 30 min, 4 C; purified recombinant protein; residues 170-446; protein details: N-terminal GST (kept); only the motif is given; cited from earlier work
[7] = target: T9, mod (Drosophila melanogaster) (UniProt P13469); settings: 20 nM protein, 1.5 uM RNA pool; 20 mM HEPES pH 7.8, 70 mM KCl, 10 mM NaCl, 10% glycerol, 2 mM DTT, 0.1 ug/uL BSA; 30 min, 4 C; purified recombinant protein; residues 127-533; protein details: N-terminal GST (kept); only the motif is given; cited from earlier work
T9 sequence: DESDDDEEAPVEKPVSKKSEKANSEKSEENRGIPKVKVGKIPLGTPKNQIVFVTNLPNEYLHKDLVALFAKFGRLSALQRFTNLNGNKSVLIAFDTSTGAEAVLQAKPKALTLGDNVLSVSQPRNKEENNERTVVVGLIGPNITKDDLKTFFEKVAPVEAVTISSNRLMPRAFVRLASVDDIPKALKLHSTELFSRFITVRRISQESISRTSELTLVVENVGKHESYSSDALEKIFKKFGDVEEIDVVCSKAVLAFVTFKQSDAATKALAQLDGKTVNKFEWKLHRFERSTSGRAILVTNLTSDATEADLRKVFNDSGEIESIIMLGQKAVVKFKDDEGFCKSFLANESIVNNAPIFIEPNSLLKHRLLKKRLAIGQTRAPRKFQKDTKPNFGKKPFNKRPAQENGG

ZNF638 (Homo sapiens) = target: T10, ZNF638 (Homo sapiens) (UniProt Q14966); settings: 20 nM protein, 1.5 uM RNA pool; 20 mM HEPES pH 7.8, 70 mM KCl, 10 mM NaCl, 10% glycerol, 2 mM DTT, 0.1 ug/uL BSA; 30 min, 4 C; purified recombinant protein; residues 628-1003; protein details: N-terminal GST (kept); only the motif is given; cited from earlier work
T10 sequence: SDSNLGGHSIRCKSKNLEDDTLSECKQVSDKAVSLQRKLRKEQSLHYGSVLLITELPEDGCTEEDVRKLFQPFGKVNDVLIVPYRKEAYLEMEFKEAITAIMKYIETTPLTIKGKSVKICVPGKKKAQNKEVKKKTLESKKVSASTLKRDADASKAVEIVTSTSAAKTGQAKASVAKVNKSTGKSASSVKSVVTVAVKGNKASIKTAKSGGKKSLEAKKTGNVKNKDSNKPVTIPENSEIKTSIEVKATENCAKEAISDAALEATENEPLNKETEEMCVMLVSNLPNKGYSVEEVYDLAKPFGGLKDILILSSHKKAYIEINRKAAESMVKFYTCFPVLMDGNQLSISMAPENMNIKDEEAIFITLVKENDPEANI

[8] = target: T11, pUf68 (Drosophila melanogaster) (UniProt Q8T6B9); settings: 20 nM protein, 1.5 uM RNA pool; 20 mM HEPES pH 7.8, 70 mM KCl, 10 mM NaCl, 10% glycerol, 2 mM DTT, 0.1 ug/uL BSA; 30 min, 4 C; purified recombinant protein; residues 82-637; protein details: N-terminal GST (kept); only the motif is given; cited from earlier work
T11 sequence: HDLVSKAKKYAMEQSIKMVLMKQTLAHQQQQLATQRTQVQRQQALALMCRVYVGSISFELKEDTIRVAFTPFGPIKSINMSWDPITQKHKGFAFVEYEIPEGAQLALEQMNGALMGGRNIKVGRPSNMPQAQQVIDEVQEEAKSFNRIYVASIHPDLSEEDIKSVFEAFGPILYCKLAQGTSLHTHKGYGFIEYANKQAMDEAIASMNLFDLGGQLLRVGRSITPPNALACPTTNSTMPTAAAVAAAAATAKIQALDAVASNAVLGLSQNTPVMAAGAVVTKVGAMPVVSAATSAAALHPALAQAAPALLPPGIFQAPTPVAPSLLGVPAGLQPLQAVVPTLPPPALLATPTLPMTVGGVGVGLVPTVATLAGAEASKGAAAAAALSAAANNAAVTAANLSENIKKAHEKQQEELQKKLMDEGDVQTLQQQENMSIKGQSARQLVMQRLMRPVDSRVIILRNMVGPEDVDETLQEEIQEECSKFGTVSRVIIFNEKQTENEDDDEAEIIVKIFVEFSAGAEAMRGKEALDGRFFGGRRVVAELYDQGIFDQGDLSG

## ACCUAA [RNAcompete motif RNCMPT00265]
[1]
  binding signal (z-score (mean of top ten 7-mers)): 3.92

## AGACCC [RNAcompete motif RNCMPT00143]
[2]
  binding signal (z-score (mean of top ten 7-mers)): 5.9

## AGACCC [RNAcompete motif RNCMPT00148]
[3]
  binding signal (z-score (mean of top ten 7-mers)): 4.99

## AUCCA [RNAcompete motif RNCMPT00170]
RBM6 (Homo sapiens)
  binding signal (z-score (mean of top ten 7-mers)): 5.86

## CAACUAC [RNAcompete motif RNCMPT00282]
[4]
  binding signal (z-score (mean of top ten 7-mers)): 5.65

## CACCC [RNAcompete motif RNCMPT00149]
ENOX1 (Homo sapiens)
  binding signal (z-score (mean of top ten 7-mers)): 4.7

## CCACCC [RNAcompete motif RNCMPT00144]
[5]
  binding signal (z-score (mean of top ten 7-mers)): 5.73

## CGCGCC [RNAcompete motif RNCMPT00018]
FUS (Homo sapiens)
  binding signal (z-score (mean of top ten 7-mers)): 5.52

## GACGGAC [RNAcompete motif RNCMPT00015]
[6]
  binding signal (z-score (mean of top ten 7-mers)): 5.76

## GGACAGG [RNAcompete motif RNCMPT00016]
FMR1 (Homo sapiens)
  binding signal (z-score (mean of top ten 7-mers)): 5.05

## GUGGAAA [RNAcompete motif RNCMPT00140]
[7]
  binding signal (z-score (mean of top ten 7-mers)): 5.16

## GUUCGU [RNAcompete motif RNCMPT00164]
ZNF638 (Homo sapiens)
  binding signal (z-score (mean of top ten 7-mers)): 4.62

## UGAGUCG [RNAcompete motif RNCMPT00141]
[8]
  binding signal (z-score (mean of top ten 7-mers)): 3.76
